Experimental data as given in PubChem BioAssay AID1347075 (National Center for Advancing Translational Sciences (NCATS), 2019).
In all, about 400,000 compounds went through this assay and about 5,500 (1.4%) were called active. The shares of active, inactive and inconclusive entries below differ from those in the screen. Calls follow the shape of the dose curve; as a rule, active = well fitted cell-killing curve with a large enough effect; inconclusive = small, poorly fitted or top-dose-only effect, or effect the other way; inactive = flat fitted curve, though single readings scatter. A potency beside an inconclusive call is a rough fit, not a confirmed value.

Assay: qHTS assay for MDR1-selective chemotherapeutics: Primary screen using the parental adenocarcinoma cell KB-3-1; also: nearly all actives have a fitted effect of over 60% in size
Details: KB-3-1 viability, CellTiter-Glo ATP luminescence, 72 h; activity change, negative = cytotoxic: at 46.1 µM (top of the series)
Method in brief: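 KB-3-1 cells, DMEM (no phenol red) + 10% FBS; compound by pin transfer, 72 h, 37 °C. Readout: CellTiter-Glo luminescence after 10 min. Data normalized, curve-fitted.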
% is scaled to controls: 0 for no effect and ±100 for the full control effect; potency is read from the fitted curve at half-maximal effect.

| SMILES | Potency | activity change, negative = cytotoxic |
| --- | --- | --- |
| CC(=O)Nc1ccc(-c2ccnc3c2CC(C(=O)Nc2cccc(C(F)(F)F)c2)O3)cc1 (configuration not stated) | inconclusive: 29.1 µM [cytotoxic, single point] | – |
| COc1ccc(C2=NOC(C(=O)NCc3ccc(F)cc3)C2)cc1 (configuration not stated) | active: 7.31 µM | – |
| CC(C)C(C(=O)NCC1CCCO1)N(Cc1cccs1)C(=O)CNS(=O)(=O)c1ccccc1 (configuration not stated) | – | inactive: -5.65% |
| O=C(c1cccc(Cl)c1)N1CCN(CCc2ccncc2)CC1 | – | inactive: -4.29% |
| CCCC1CCC(c2nc(-c3cccnc3)no2)CC1 (configuration not stated) | – | inactive: 0.282% |
| O=C(Nc1cc(S(=O)(=O)N2CCOCC2)ccc1Cl)c1cc([N+](=O)[O-])ccc1Cl | inconclusive: 7.31 µM [cytotoxic, partial curve, poor fit] | – |
| CN1CCN(/N=C/c2ccc(N(C)c3ccccc3)cc2)CC1 | – | inactive: 15.5% |
| O=C(NC(=S)Nc1ccccc1N1CCCCC1)c1cccs1 | – | inactive: -13.5% |
| CC(CC(=O)Nc1ccc(Cl)c([N+](=O)[O-])c1)c1ccccc1 (configuration not stated) | inconclusive: 29.1 µM [cytotoxic, single point] | – |
| CC(C)c1ccc(N(CC(=O)NN=C2CCN(C)CC2)S(=O)(=O)c2ccccc2)cc1 | – | inconclusive: 3.62% |
| CCC(=O)N1CCN(c2c(Cl)cccc2[N+](=O)[O-])CC1 | inconclusive: 8.2 µM [cytotoxic, partial curve, poor fit] | – |
| COc1ccc(-c2nc(CSc3nncn4c3cc3occc34)c(C)o2)cc1 | inconclusive: 29.1 µM [cytotoxic, single point] | – |
| C[C@@H]1CN([C@@H](C)CO)C(=O)CCCn2nncc2CO[C@H]1CN(C)C(=O)CCC(F)(F)F | – | inactive: 3.26% |
| Oc1ccc(/C=N/Nc2ccc(C(F)(F)F)cn2)cc1 | inconclusive: 23.1 µM [cytotoxic, single point] | – |
| CCN(Cc1ccncc1)C(=O)c1ccccc1NS(=O)(=O)c1ccc(F)cc1 | – | inactive: 19.2% |
| O=C(CCNS(=O)(=O)c1cccc2nonc12)NC1CCCc2ccccc21 (configuration not stated) | – | inactive: 3.85% |
| N=c1c2c(-c3ccccc3)c(-c3ccccc3)n(Cc3ccco3)c2ncn1CCCn1ccnc1 | inconclusive: 29.1 µM [cytotoxic, single point] | – |
| COc1ccc(-c2cc(-c3nnc(COC(=O)C4CC4C)o3)c3ccccc3n2)cc1OC (configuration not stated) | – | inactive: 3.48% |
| C=CCNc1nnc(SC2CC(=O)N(c3ccc(OCCC)cc3)C2=O)s1 (configuration not stated) | inconclusive: 16.4 µM [cytotoxic, single point] | – |
| Brc1ccc(CSc2nnc(-c3ccco3)o2)cc1 | – | inactive: 7.06% |
| CNC(=O)c1sccc1SCc1c(Cl)cccc1Cl | inconclusive: 13 µM [cytotoxic, partial curve, poor fit] | – |
| O=C(CN1C(=O)NC2(CCOc3ccccc32)C1=O)NCC(F)(F)F (configuration not stated) | inconclusive: 20.6 µM [rising, single point] | – |
| Cc1cccc(N2CCN(C(=O)c3ccccc3SCC(=O)N3CCCC3)CC2)c1C | – | inactive: -20.4% |

| SMILES | Potency | activity change, negative = cytotoxic |
| --- | --- | --- |
| Cc1sc2nc(CSCC(=O)Nc3c(F)cccc3F)[nH]c(=O)c2c1C | inconclusive: 29.1 µM [rising, single point] | – |
| Cc1cccc(N2CCN(C(=O)COc3ccc4c(C)cc(=O)oc4c3C)CC2)c1C | inconclusive: 16.4 µM [cytotoxic, partial curve, poor fit] | – |
| Nc1cc(=O)nc(SCC(=O)N2CCN(c3ccccc3)CC2)n1-c1ccc(F)cc1 | inconclusive: 25.9 µM [cytotoxic, partial curve, poor fit] | – |
| O=C(NNC(=O)c1cc(-c2ccc(Cl)cc2Cl)nc2ccccc12)Nc1ccccc1 | inconclusive: 20.6 µM [cytotoxic, single point] | – |
| CCCCCOc1c(Cl)cc(C(=O)N(Cc2ccc(C)o2)C2CCS(=O)(=O)C2)cc1Cl (configuration not stated) | inconclusive: 32.6 µM [cytotoxic, partial curve, poor fit] | – |
| COc1ccc(-c2cc(C(=O)NNC(=S)NC(=O)c3c(-c4ccccc4)noc3C)[nH]n2)cc1 | inconclusive: 20.6 µM [cytotoxic, single point] | – |
| CC1=C(C(=O)Nc2ccccc2)C(c2cccnc2)n2nc(SCc3ccccc3Cl)nc2N1 (configuration not stated) | – | inactive: -2.19% |
| CC(Sc1ccc(S(=O)(=O)N2CCOCC2)cn1)C(=O)Nc1ccc(Cl)cc1Cl (configuration not stated) | inconclusive: 29.1 µM [cytotoxic, partial curve, poor fit] | – |
| COC(=O)c1ccc(C(=O)OC)c(NC(=O)COC(=O)CCOc2ccc(C)cc2)c1 | – | inactive: 7.81% |
| O=C(Nc1ccc(Cl)cc1)N1CCC(c2nc(-c3ccc(F)cc3)no2)CC1 | inconclusive: 35.5 µM [cytotoxic, single point] | – |
| CCCNC(=O)c1cc2c(c(-c3cccc(-c4ccc(F)cc4)c3)n1)[C@H](CCO)N(S(=O)C(C)(C)C)C2 (some centres not stated) | inconclusive: 29.1 µM [cytotoxic, single point] | – |
| COC(=O)[C@@]1(Sc2ccc(C)cc2)CC(=O)N(C(=O)CCc2ccccc2)[C@@H]1c1ccccc1 | – | inactive: 15.7% |
| COc1cc(/C=N/Nc2cccc(C)c2)ccc1OC(=O)c1ccco1 | inconclusive: 29.1 µM [rising, single point] | – |
| COc1ccc(N2CCN(C(=O)c3cc(-c4cc(OC)ccc4OC)nc4ccccc34)CC2)cc1 | inconclusive: 13 µM [cytotoxic, partial curve] | – |
| CCn1c(/C=C/c2ccccc2)nc2ccccc2c1=O | inconclusive: 20.6 µM [cytotoxic, single point] | – |
| N#Cc1cc([N+](=O)[O-])c(-n2nnc3ccccc32)c([N+](=O)[O-])c1 | inconclusive: 29.1 µM [cytotoxic, single point] | – |
| CCCCC(=O)NC(c1ccccc1Cl)c1c(O)ccc2ccccc12 (configuration not stated) | – | inactive: -14.9% |
| O=C(CC(=O)c1cc(Cl)ccc1O)c1ccccc1 | inconclusive: 29.1 µM [cytotoxic, single point] | – |
| O=[N+]([O-])c1ccc(CSc2ccc(S(=O)(=O)N3CCOCC3)cn2)cc1 | – | inactive: 10.1% |
| O=S(=O)(c1cccs1)N1CN(Cc2ccc(F)cc2)c2nc3ccccc3nc21 | inconclusive: 29.1 µM [cytotoxic, single point] | – |
| CCCCCc1ccc(OCCOCCn2c[n+](C)c3ccccc32)c(CCCCC)c1 | active: 18.4 µM | – |
| O=C(C=Cc1ccccc1)c1c[nH]c2ccccc2c1=O | active: 5.17 µM | – |
| CC(=O)Nc1ccc(S(=O)(=O)c2ccnc3cc(Cl)ccc23)cc1 | inconclusive: 11.6 µM [cytotoxic, partial curve, poor fit] | – |

| SMILES | Potency | activity change, negative = cytotoxic |
| --- | --- | --- |
| Cc1cc([N+](=O)[O-])ccc1NC(=O)CN1C2CCC1CC(NC(=O)NC13CC4CC(CC(C4)C1)C3)C2 (configuration not stated) | inconclusive: 29.1 µM [cytotoxic, partial curve, poor fit] | – |
| CC(=O)Nc1ccc(S(=O)(=O)NNC(=O)COc2cccc(C)c2)cc1 | inconclusive: 0.164 µM [rising, full curve] | – |
| COc1ccc(CN(C)C(=O)c2ccc(OCC(=O)Nc3cccc(C(F)(F)F)c3)c(OC)c2)c(OC)c1 | inconclusive: 14.6 µM [cytotoxic, partial curve, poor fit] | – |
| CCC(Oc1ccc(Br)cc1)C(=O)N1CCN(c2ncccn2)CC1 (configuration not stated) | – | inconclusive: 37.3% |
| CCCCc1ccc(NC(=O)c2ccc(N(C)S(C)(=O)=O)cc2)cc1 | – | inactive: -0.803% |
| O=C(Nc1cc(S(=O)(=O)N2CCOCC2)ccc1N1CCCCC1)c1ccc(Cl)cc1 | – | inactive: -4.18% |
| Cc1ccccc1/C=C/c1cc[n+](C)cc1 | inconclusive: 16.4 µM [cytotoxic, single point] | – |
| COc1ccc(/C=C/c2cc(-c3ccc(C)cc3)o[n+]2C)cc1 | inconclusive: 0.731 µM [cytotoxic, full curve, poor fit] | – |
| O=S1(=O)c2ccccc2N(Cc2cccc(C(F)(F)F)c2)c2ccccc21 | inconclusive: 16.4 µM [cytotoxic, partial curve] | – |
| C[C@H](O)C#Cc1cnc2c(c1)C(=O)N([C@H](C)CO)C[C@@H](C)[C@@H](CN(C)Cc1ccc(-c3ccccc3)cc1)O2 | inconclusive: 32.6 µM [cytotoxic, single point] | – |
| CCOC(=O)/C(C#N)=C/c1c(N2CCN(Cc3ccc4c(c3)OCO4)CC2)nc2c(C)cccn2c1=O | inconclusive: 29.1 µM [rising, single point] | – |
| Cc1ccc(-c2onc(C)c2C)cc1S(=O)(=O)N1c2ccccc2CC1C (configuration not stated) | inconclusive: 29.1 µM [cytotoxic, single point] | – |
| Fc1ccc(CNc2nc(-c3cccnc3)nc3ccccc23)cc1 | – | inactive: -22.1% |
| Oc1c(N=Nc2nn[nH]n2)ccc2ccccc12 | inconclusive: 29.1 µM [cytotoxic, single point] | – |
| COc1ccccc1CNc1nc(NCC2CC2)nc2ccsc12 | inconclusive: 20.6 µM [cytotoxic, single point] | – |
| O=C(NC(NC(=S)Nc1c(Cl)cc(Cl)cc1Cl)C(Cl)(Cl)Cl)OCc1ccccc1 (configuration not stated) | inconclusive: 29.1 µM [cytotoxic, single point] | – |
| CCOCCc1nn2c(=O)cc(COC(=O)c3ccccc3NC(=O)C3CCCCC3)nc2s1 | – | inactive: 1.51% |
| CC1(C)CC2CC(C)(CN2C(=O)COc2cccc3ccccc23)C1 (configuration not stated) | inconclusive: 18.4 µM [cytotoxic, single point] | – |
| CCOC(=O)c1c(-c2cc(OC)c(OC)c(OC)c2)csc1NC(=O)c1ccccc1 | inconclusive: 29.1 µM [cytotoxic, single point] | – |
| COC(=O)C1C(=O)OC(C)(C)C1C(C)C(=O)c1ccc(C)cc1C (configuration not stated) | inconclusive: 29.1 µM [cytotoxic, single point] | – |
| COc1cccc(-c2nc(SCC(=O)Nc3ccc4c(c3)OCCO4)c(-c3ccccc3)[nH]2)c1 | inconclusive: 32.6 µM [cytotoxic, single point] | – |

Twelve entries out of the list, arranged by heavy-atom count, high to low.

| SMILES | Potency | activity change, negative = cytotoxic |
| --- | --- | --- |
| C[C@H](O)C#Cc1cnc2c(c1)C(=O)N([C@H](C)CO)C[C@@H](C)[C@@H](CN(C)Cc1ccc(-c3ccccc3)cc1)O2 | inconclusive: 32.6 µM [cytotoxic, single point] | – |
| CCOC(=O)/C(C#N)=C/c1c(N2CCN(Cc3ccc4c(c3)OCO4)CC2)nc2c(C)cccn2c1=O | inconclusive: 29.1 µM [rising, single point] | – |
| CCOCCc1nn2c(=O)cc(COC(=O)c3ccccc3NC(=O)C3CCCCC3)nc2s1 | – | inactive: 1.51% |
| O=C(Nc1cc(S(=O)(=O)N2CCOCC2)ccc1N1CCCCC1)c1ccc(Cl)cc1 | – | inactive: -4.18% |
| O=C(NC(NC(=S)Nc1c(Cl)cc(Cl)cc1Cl)C(Cl)(Cl)Cl)OCc1ccccc1 (configuration not stated) | inconclusive: 29.1 µM [cytotoxic, single point] | – |
| O=S1(=O)c2ccccc2N(Cc2cccc(C(F)(F)F)c2)c2ccccc21 | inconclusive: 16.4 µM [cytotoxic, partial curve] | – |
| CC(=O)Nc1ccc(S(=O)(=O)NNC(=O)COc2cccc(C)c2)cc1 | inconclusive: 0.164 µM [rising, full curve] | – |
| Fc1ccc(CNc2nc(-c3cccnc3)nc3ccccc23)cc1 | – | inactive: -22.1% |
| COc1ccccc1CNc1nc(NCC2CC2)nc2ccsc12 | inconclusive: 20.6 µM [cytotoxic, single point] | – |
| COc1ccc(/C=C/c2cc(-c3ccc(C)cc3)o[n+]2C)cc1 | inconclusive: 0.731 µM [cytotoxic, full curve, poor fit] | – |
| Oc1c(N=Nc2nn[nH]n2)ccc2ccccc12 | inconclusive: 29.1 µM [cytotoxic, single point] | – |
| Cc1ccccc1/C=C/c1cc[n+](C)cc1 | inconclusive: 16.4 µM [cytotoxic, single point] | – |
